PubChem BioAssay AID1224830 – NIAID – 2016
Here is one part, drawn at random, of about 18,000 reagents. About 2,900 of all reagents (16%) were called active. 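Calls are made per well; low scores hint the gene aids the LPS response, high scores that it dampens it.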 Repeated entries: four replicate wells of each siRNA pool.

- Purpose: 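Regulators of TLR4 signalling towards TNF-alpha in macrophage-like cells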 (primary screen)
- Cell system: human THP-1 monocytic leukaemia cells, TNF dual-luciferase reporter clone, PMA-differentiated to macrophage-like cells
- Knock-down reagent: siRNA pool against human genes, 50 nM
- Time to read-out: LPS for 4 h, given about 3 days after siRNA transfection
- Challenge: bacterial LPS (TLR4 ligand), 10 ng/ml
- Measurement: 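Ratio of firefly to renilla light, scaled to the plate median and expressed as a robust z-score per replicate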
- Direction: TNF reporter robust z-score: higher = stronger TNF reporter response to LPS
- Rule for the call: 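Each well counts as active if its z-score is over 2.8 or under -1.5; controls are left without a call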

| Target gene | TNF reporter robust z-score | call |
| --- | --- | --- |
| SCN1A (sodium voltage-gated channel alpha subunit 1) | 1.23 | inactive |
| SCN1A (sodium voltage-gated channel alpha subunit 1) | 3.4 | active |
| SCN1A (sodium voltage-gated channel alpha subunit 1) | 0.43 | inactive |
| SCN1A (sodium voltage-gated channel alpha subunit 1) | 0.34 | inactive |
| HID1 (HID1 domain containing) | 0.7 | inactive |
| HID1 (HID1 domain containing) | 2.91 | active |
| HID1 (HID1 domain containing) | 0.93 | inactive |
| HID1 (HID1 domain containing) | 1.52 | inactive |
| UBASH3B (ubiquitin associated and SH3 domain containing B) | 0.16 | inactive |
| UBASH3B (ubiquitin associated and SH3 domain containing B) | 0.15 | inactive |
| UBASH3B (ubiquitin associated and SH3 domain containing B) | 0.82 | inactive |
| UBASH3B (ubiquitin associated and SH3 domain containing B) | 0.08 | inactive |
| FGF2 (fibroblast growth factor 2) | 0.59 | inactive |
| FGF2 (fibroblast growth factor 2) | 1.14 | inactive |
| FGF2 (fibroblast growth factor 2) | 1.25 | inactive |
| FGF2 (fibroblast growth factor 2) | 0.99 | inactive |
| ETV6 (ETS variant transcription factor 6) | -0.16 | inactive |
| ETV6 (ETS variant transcription factor 6) | 0.09 | inactive |
| ETV6 (ETS variant transcription factor 6) | -0.03 | inactive |
| ETV6 (ETS variant transcription factor 6) | 0.02 | inactive |
| NHERF4 (NHERF family PDZ scaffold protein 4) | 1.25 | inactive |
| NHERF4 (NHERF family PDZ scaffold protein 4) | -0.02 | inactive |
| NHERF4 (NHERF family PDZ scaffold protein 4) | 0.59 | inactive |
| NHERF4 (NHERF family PDZ scaffold protein 4) | -0.11 | inactive |
| FZD10 (frizzled class receptor 10) | 0.04 | inactive |
| FZD10 (frizzled class receptor 10) | 1.3 | inactive |
| FZD10 (frizzled class receptor 10) | 0.72 | inactive |
| FZD10 (frizzled class receptor 10) | 0.87 | inactive |
| NCSTN (nicastrin) | -1.45 | inactive |
| NCSTN (nicastrin) | -0.83 | inactive |
| NCSTN (nicastrin) | -1.32 | inactive |
| NCSTN (nicastrin) | -1.08 | inactive |
| DYNC2LI1 (dynein cytoplasmic 2 light intermediate chain 1) | -1.42 | inactive |
| DYNC2LI1 (dynein cytoplasmic 2 light intermediate chain 1) | -0.74 | inactive |
| DYNC2LI1 (dynein cytoplasmic 2 light intermediate chain 1) | -0.7 | inactive |
| DYNC2LI1 (dynein cytoplasmic 2 light intermediate chain 1) | -1.59 | active |
| CELA3B (chymotrypsin like elastase 3B) | -0.07 | inactive |
| CELA3B (chymotrypsin like elastase 3B) | 0.74 | inactive |
| CELA3B (chymotrypsin like elastase 3B) | 1.14 | inactive |
| CELA3B (chymotrypsin like elastase 3B) | 0.16 | inactive |
| DHRSX (dehydrogenase/reductase X-linked) | – | inactive |
| DHRSX (dehydrogenase/reductase X-linked) | 1.25 | inactive |
| DHRSX (dehydrogenase/reductase X-linked) | 2.04 | inactive |
| DHRSX (dehydrogenase/reductase X-linked) | 3.01 | active |
| DHRSX (dehydrogenase/reductase X-linked) | 2.13 | inactive |
| NINJ1 (ninjurin 1) | 2.14 | inactive |
| NINJ1 (ninjurin 1) | 1.78 | inactive |
| NINJ1 (ninjurin 1) | 2.69 | inactive |
| NINJ1 (ninjurin 1) | 0.35 | inactive |
| ACOT9 (acyl-CoA thioesterase 9) | -0.41 | inactive |
| ACOT9 (acyl-CoA thioesterase 9) | -0.6 | inactive |
| ACOT9 (acyl-CoA thioesterase 9) | -0.38 | inactive |
| ACOT9 (acyl-CoA thioesterase 9) | -0.75 | inactive |
| MIER2 (MIER family member 2) | -1.28 | inactive |
| MIER2 (MIER family member 2) | -0.08 | inactive |
| MIER2 (MIER family member 2) | -1.2 | inactive |
| MIER2 (MIER family member 2) | -0.49 | inactive |
| F10 (coagulation factor X) | -0.38 | inactive |
| F10 (coagulation factor X) | -0.37 | inactive |
| F10 (coagulation factor X) | 0.59 | inactive |
| F10 (coagulation factor X) | -0.65 | inactive |
| CDK17 (cyclin dependent kinase 17) | 1.1 | inactive |
| CDK17 (cyclin dependent kinase 17) | 0.7 | inactive |
| CDK17 (cyclin dependent kinase 17) | 1.31 | inactive |
| CDK17 (cyclin dependent kinase 17) | 2.93 | active |
| OR51A7 (olfactory receptor family 51 subfamily A member 7) | 0.3 | inactive |
| OR51A7 (olfactory receptor family 51 subfamily A member 7) | 0.04 | inactive |
| OR51A7 (olfactory receptor family 51 subfamily A member 7) | -0.28 | inactive |
| OR51A7 (olfactory receptor family 51 subfamily A member 7) | 1.06 | inactive |
| TMEM171 (transmembrane protein 171) | -0.63 | inactive |
| TMEM171 (transmembrane protein 171) | -0.3 | inactive |
| TMEM171 (transmembrane protein 171) | -1.13 | inactive |
| TMEM171 (transmembrane protein 171) | -0.75 | inactive |
| SOSTDC1 (sclerostin domain containing 1) | -0.25 | inactive |
| SOSTDC1 (sclerostin domain containing 1) | -0.49 | inactive |
| SOSTDC1 (sclerostin domain containing 1) | 0.22 | inactive |
| SOSTDC1 (sclerostin domain containing 1) | 0.32 | inactive |
| VCAN (versican) | -0.37 | inactive |
| VCAN (versican) | 0.62 | inactive |
| VCAN (versican) | -0.4 | inactive |
| VCAN (versican) | -0.21 | inactive |
| SLC7A10 | 0.78 | inactive |
| SLC7A10 | 1.17 | inactive |
| SLC7A10 | 0.35 | inactive |
| ELP4 (elongator acetyltransferase complex subunit 4) | 0.68 | inactive |
| ELP4 (elongator acetyltransferase complex subunit 4) | 0.95 | inactive |
| ELP4 (elongator acetyltransferase complex subunit 4) | 0.25 | inactive |
| ELP4 (elongator acetyltransferase complex subunit 4) | 1.69 | inactive |
| PDRG1 (p53 and DNA damage regulated 1) | -1.76 | active |
| PDRG1 (p53 and DNA damage regulated 1) | -0.91 | inactive |
| PDRG1 (p53 and DNA damage regulated 1) | -0.73 | inactive |
| PDRG1 (p53 and DNA damage regulated 1) | -0.48 | inactive |

Part of the list above, set out differently.
{"Target gene": "NINJ1 (ninjurin 1)", "TNF reporter robust z-score": 2.69, "call": "inactive"}
{"Target gene": "NINJ1 (ninjurin 1)", "TNF reporter robust z-score": 0.35, "call": "inactive"}
{"Target gene": "ACOT9 (acyl-CoA thioesterase 9)", "TNF reporter robust z-score": -0.41, "call": "inactive"}
{"Target gene": "ACOT9 (acyl-CoA thioesterase 9)", "TNF reporter robust z-score": -0.6, "call": "inactive"}
{"Target gene": "ACOT9 (acyl-CoA thioesterase 9)", "TNF reporter robust z-score": -0.38, "call": "inactive"}
{"Target gene": "ACOT9 (acyl-CoA thioesterase 9)", "TNF reporter robust z-score": -0.75, "call": "inactive"}
{"Target gene": "MIER2 (MIER family member 2)", "TNF reporter robust z-score": -1.28, "call": "inactive"}
{"Target gene": "MIER2 (MIER family member 2)", "TNF reporter robust z-score": -0.08, "call": "inactive"}
{"Target gene": "MIER2 (MIER family member 2)", "TNF reporter robust z-score": -1.2, "call": "inactive"}
{"Target gene": "MIER2 (MIER family member 2)", "TNF reporter robust z-score": -0.49, "call": "inactive"}

Additional reagents:
| Target gene | TNF reporter robust z-score | call |
| --- | --- | --- |
| MRPL34 (mitochondrial ribosomal protein L34) | -0.36 | inactive |
| MRPL34 (mitochondrial ribosomal protein L34) | -0.1 | inactive |
| MRPL34 (mitochondrial ribosomal protein L34) | -0.33 | inactive |
| MRPL34 (mitochondrial ribosomal protein L34) | 0.21 | inactive |
| SCNN1A (sodium channel epithelial 1 subunit alpha) | -1.28 | inactive |
| SCNN1A (sodium channel epithelial 1 subunit alpha) | -0.61 | inactive |
| SCNN1A (sodium channel epithelial 1 subunit alpha) | -1.6 | active |
| SCNN1A (sodium channel epithelial 1 subunit alpha) | 0.04 | inactive |
| DTX2 (deltex E3 ubiquitin ligase 2) | -0.81 | inactive |
| DTX2 (deltex E3 ubiquitin ligase 2) | 1.35 | inactive |
| DTX2 (deltex E3 ubiquitin ligase 2) | 0.19 | inactive |
| DTX2 (deltex E3 ubiquitin ligase 2) | -0.83 | inactive |
| TIE1 | 3.99 | active |
| TIE1 | 2.66 | inactive |
| TIE1 | 0.71 | inactive |
| TIE1 | 2.32 | inactive |
| SLC25A28 | -1 | inactive |
| SLC25A28 | -0.39 | inactive |
| SLC25A28 | -0.69 | inactive |
| SLC25A28 | -0.47 | inactive |
| AP2A1 (adaptor related protein complex 2 subunit alpha 1) | -1.22 | inactive |
| AP2A1 (adaptor related protein complex 2 subunit alpha 1) | -0.3 | inactive |
| AP2A1 (adaptor related protein complex 2 subunit alpha 1) | -0.03 | inactive |
| CPB1 (carboxypeptidase B1) | 0.22 | inactive |
| CPB1 (carboxypeptidase B1) | -0.41 | inactive |
| CPB1 (carboxypeptidase B1) | -0.23 | inactive |
| CPB1 (carboxypeptidase B1) | 0.21 | inactive |
| OR13A1 (olfactory receptor family 13 subfamily A member 1) | -0.47 | inactive |
| OR13A1 (olfactory receptor family 13 subfamily A member 1) | -0.51 | inactive |
| OR13A1 (olfactory receptor family 13 subfamily A member 1) | -0.5 | inactive |
| OR13A1 (olfactory receptor family 13 subfamily A member 1) | 0.08 | inactive |
| PUS10 (pseudouridine synthase 10) | 0.17 | inactive |
| PUS10 (pseudouridine synthase 10) | 0.21 | inactive |
| PUS10 (pseudouridine synthase 10) | 1.24 | inactive |
| PUS10 (pseudouridine synthase 10) | 1.81 | inactive |
| HIVEP3 (HIVEP zinc finger 3) | -1.49 | inactive |
| HIVEP3 (HIVEP zinc finger 3) | -1.39 | inactive |
| HIVEP3 (HIVEP zinc finger 3) | -1.74 | active |
| LRWD1 (leucine rich repeats and WD repeat domain containing 1) | – | inactive |
| LRWD1 (leucine rich repeats and WD repeat domain containing 1) | -0.23 | inactive |
| LRWD1 (leucine rich repeats and WD repeat domain containing 1) | -1.01 | inactive |
| LRWD1 (leucine rich repeats and WD repeat domain containing 1) | -1.19 | inactive |
| STX10 (syntaxin 10) | 0.25 | inactive |
| STX10 (syntaxin 10) | -0.02 | inactive |
| STX10 (syntaxin 10) | -0.26 | inactive |
| STX10 (syntaxin 10) | -0.28 | inactive |
| MRPS30 (mitochondrial ribosomal protein S30) | 0.31 | inactive |
| MRPS30 (mitochondrial ribosomal protein S30) | -0.39 | inactive |
| MRPS30 (mitochondrial ribosomal protein S30) | 0.98 | inactive |
| MRPS30 (mitochondrial ribosomal protein S30) | 1.73 | inactive |
